Assay results

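GFP-tagged normal-ribosome E. coli mixed with an RFP-tagged h34 humanized strain, with green signal taken as growth after 24 hours. The value is the change in activity at the highest dose tested; more negative means stronger inhibition. Active requires GFP to fall at least twice as much as RFP with growth loss below a set limit; inconclusive means no clear call; everything else is inactive.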

These entries are mostly ones the record files as inconclusive; other results of the assay are not listed here.

| # | structure | tested on / at | activity change | call |
|---|---|---|---|---|
| 1 | `Clc1ccc(-n2nnnc2-c2cnc3ccccc3c2-c2ccccc2)cc1` | at 50 µM (top of the series) | -13.8 | inconclusive |
| 2 | `CC(C)CC#Cc1ccc([C@H]2[C@@H](CO)N3CCCCN(S(=O)(=O)Cc4ccccc4)C[C@H]23)cc1` | at 50 µM (top of the series) | -96.52 | inconclusive |
| 3 | `CCCCOc1ccc(-c2nnn(CCC(=O)N3CCOCC3)n2)cc1` | at 50 µM (top of the series) | 5.041 | inactive |
| 4 | `Nc1[nH]c(C(=O)c2ccccc2)c(-c2ccc(Br)cc2)c1C(=O)c1cccs1` | at 50 µM (top of the series) | -32.5 | inconclusive |
| 5 | `Cc1nnn(C23CC4CC(CC(CC(=O)Nc5ccc(C)c(C)c5)(C4)C2)C3)n1` | at 50 µM (top of the series) | 9.293 | inconclusive |
| 6 | `O=C(Nc1ccc2c(c1)OCCO2)C1C(c2ccccc2)=Nc2ccccc2N1C(=O)c1cccnc1` (centres undefined) | at 50 µM (top of the series) | 30.47 | inconclusive |
| 7 | `Cc1ccc(-c2c[n+](CC(=O)Nc3ccccc3)c3n2CCC3)cc1` | at 50 µM (top of the series) | 13.85 | inactive |
| 8 | `COC(=O)c1cc2c(c3c4cc(OC)ccc4n(C(=O)c4ccccc4)c13)C(=O)N(Cc1ccco1)C2` | at 50 µM (top of the series) | 15.27 | inconclusive |
| 9 | `Cc1c(C(=O)Nc2ccccc2)c2cc(O)ccc2n1Cc1ccccc1` | at 50 µM (top of the series) | 20.24 | inconclusive |
| 10 | `Cc1ccc(S(=O)(=O)Nc2c(C)cc([N+](=O)[O-])cc2C)cc1` | at 50 µM (top of the series) | -35.62 | inconclusive |
| 11 | `CC1CCN(C(=O)COC(=O)c2ccccc2NC(=O)c2ccco2)CC1` | at 50 µM (top of the series) | -5.976 | inactive |
| 12 | `CC(C)=C(c1ccc(Cl)cc1)c1c(N)ncnc1N` | at 50 µM (top of the series) | -11.81 | inconclusive |
| 13 | `Cn1c(=O)c2c(ncn2CC(O)CNc2ccc(F)cc2)n(C)c1=O` (centres undefined) | at 50 µM (top of the series) | 4.546 | inactive |
| 14 | `COc1cc(CC(=O)Nc2nc(C)cs2)cc(OC)c1OC` | at 50 µM (top of the series) | -2.303 | inconclusive |
| 15 | `COC(C(=O)Nc1ccnn1C1CCN(Cc2ccc(Cl)s2)CC1)c1ccccc1` (centres undefined) | at 50 µM (top of the series) | -4.506 | inconclusive |
| 16 | `C[C@@H]1CN([C@@H](C)CO)C(=O)c2cc(NC(=O)Nc3cccc4ccccc34)ccc2O[C@@H](C)CCCCO[C@H]1CN(C)C` | at 50 µM (top of the series) | -2.213 | inactive |
| 17 | `CCNC(=O)C1(C)CCCN(Cc2cccc3ccccc23)C1` (centres undefined) | at 50 µM (top of the series) | 7.909 | inactive |
| 18 | `CC(=O)Nc1ccc(CNc2nc(NCCN(C)C)nc3cc(-c4ccccc4)sc23)cc1` | at 50 µM (top of the series) | 34.92 | inconclusive |
| 19 | `COc1cccc(-n2nnnc2SCC(=O)NCc2ccc3c(c2)OCO3)c1` | at 50 µM (top of the series) | -18.29 | inconclusive |
| 20 | `NS(=O)(=O)c1ccc(CCNC(=O)CCCCCNc2nc(=S)[nH]c3ccccc23)cc1` | at 50 µM (top of the series) | 1.881 | inactive |
| 21 | `CCN(CC)CCN(C(=O)c1ccc2ccccc2c1)c1nc2ccc(OC)cc2s1` | at 50 µM (top of the series) | -22.18 | inconclusive |
| 22 | `COc1ccc(OC)c(S(=O)(=O)Nc2cccc3ccc(O)cc23)c1` | at 50 µM (top of the series) | -13.22 | inconclusive |
| 23 | `Nc1c(C(=O)NCCN2CCOCC2)c2nc3ccccc3nc2n1Cc1ccccc1` | at 50 µM (top of the series) | 15.32 | inconclusive |
| 24 | `COc1ccc(C2CC(c3ccc(Br)cc3)=NN2C(=O)CN2CCCC2)cc1` (centres undefined) | at 50 µM (top of the series) | 40.87 | inconclusive |
| 25 | `CCN1C(=O)C(CC(=O)Nc2ccc(F)cc2)N(CCCN2CCN(c3ccc(F)cc3)CC2)C1=S` (centres undefined) | at 50 µM (top of the series) | 2.283 | inactive |
| 26 | `CC1(C)CC2CC(C)(CN2c2ncnc3ccccc23)C1` (centres undefined) | at 50 µM (top of the series) | -10.59 | inconclusive |
| 27 | `Cc1cc(-c2ccc(C)c(S(=O)(=O)NC(C)Cc3ccco3)c2)on1` (centres undefined) | at 50 µM (top of the series) | -11.23 | inactive |
| 28 | `CCCn1c(C(C)Nc2nc(-c3ccc(C)cc3)cs2)nc2ccccc21` (centres undefined) | at 50 µM (top of the series) | 23.18 | inconclusive |
| 29 | `COc1ccc(OCC(=O)N2c3ccccc3CC2C)c([N+](=O)[O-])c1` (centres undefined) | at 50 µM (top of the series) | 7.56 | inconclusive |
| 30 | `CN(C)c1ccc(-c2nnn(Cc3ccccc3Br)n2)cc1` | at 50 µM (top of the series) | -11.6 | inconclusive |
| 31 | `COc1ccc(-c2noc(CCc3ccccc3)n2)cc1` | at 50 µM (top of the series) | 44.63 | inconclusive |
| 32 | `O=C(CCC1CCCN(C(=O)c2ccsc2)C1)N1CCN(c2ccccn2)CC1` (centres undefined) | at 50 µM (top of the series) | 33.45 | inconclusive |
| 33 | `O=C(NCc1ccccc1)c1ccc(-c2cn[nH]c2)c2ccoc12` | at 50 µM (top of the series) | -9.059 | inconclusive |
| 34 | `O=C(O)c1ccccc1Nc1cc(Cl)c2nonc2c1[N+](=O)[O-]` | at 50 µM (top of the series) | 17.1 | inconclusive |
| 35 | `O=C(CCCOc1ccccc1)NCCc1nc2ccccc2[nH]1` | at 50 µM (top of the series) | 25.32 | inconclusive |
| 36 | `O=C(C[C@H]1CC[C@H](NC(=O)Nc2ccccc2F)[C@H](CO)O1)NCc1ccc(-c2ccccc2)cc1` | at 50 µM (top of the series) | -5.019 | inconclusive |
| 37 | `Cn1cc(CN2CCCC(C(=O)Nc3cccc(-c4cc5ccccc5[nH]4)c3)C2)cn1` (centres undefined) | at 50 µM (top of the series) | -2.113 | inconclusive |
| 38 | `Cc1ccc(C(=O)NCc2ccccc2)c(F)c1F` | at 50 µM (top of the series) | 24.42 | inconclusive |
| 39 | `Cc1ccc2c(N)c(C(=O)c3ccccc3)sc2n1` | at 50 µM (top of the series) | 12.56 | inconclusive |
| 40 | `C[C@@H]1CN([C@@H](C)CO)S(=O)(=O)c2ccc(Br)cc2O[C@H]1CN(C)C(=O)c1ccccc1` | at 50 µM (top of the series) | -8.068 | inconclusive |
| 41 | `O=C1NC(=O)C2(Cc3cc([N+](=O)[O-])ccc3N3CCN(C(=O)c4ccccc4)CC32)C(=O)N1` (centres undefined) | at 50 µM (top of the series) | 5.997 | inactive |
| 42 | `O=S(=O)(NCc1cc(-c2ccccc2)no1)c1ccccc1Cl` | at 50 µM (top of the series) | 25.46 | inconclusive |
| 43 | `Cc1cc(C)nc(SCCC(=O)Nc2ccccc2Cl)n1` | at 50 µM (top of the series) | 33.23 | inconclusive |
| 44 | `Cn1c(CCN2CCOCC2)nc2cc(NC(=O)c3cccs3)ccc21` | at 50 µM (top of the series) | 25.93 | inconclusive |
| 45 | `CCCCNC(=O)c1cc2c(C)cc(C)cc2[nH]1` | at 50 µM (top of the series) | -4.565 | inconclusive |
| 46 | `O=C(O)c1cc(S(=O)(=O)N2CCN(C(c3ccccc3)c3ccccc3)CC2)ccc1Cl` | at 50 µM (top of the series) | -26.34 | inconclusive |
| 47 | `CCN(CC)S(=O)(=O)c1ccc(N2CCCC2)c(NC(=O)c2ccccc2OC)c1` | at 50 µM (top of the series) | 9.759 | inactive |
| 48 | `COCC(=O)N1[C@@H]2CN(C(=O)Nc3ccccc3F)c3ccccc3[C@@H]2[C@@H]1CO` | at 50 µM (top of the series) | 19.45 | inconclusive |
| 49 | `CCOc1ccc(CCNC(=O)CCc2nc3ccccc3[nH]2)cc1OCC` | at 50 µM (top of the series) | 13.39 | inconclusive |
| 50 | `CN(CC(=O)Nc1ccc(F)cc1)C(=O)COc1ccc([N+](=O)[O-])cc1Cl` | at 50 µM (top of the series) | -6.219 | inconclusive |
| 51 | `CC(=O)Nc1nc(C)c(-c2csc(Nc3ccccn3)n2)s1` | at 50 µM (top of the series) | 3.698 | inconclusive |
| 52 | `C[C@@H]1CCCCO[C@@H](CN(C)C)[C@H](C)CN([C@@H](C)CO)C(=O)c2cc(NC(=O)Nc3cccc4ccccc34)ccc2O1` | at 50 µM (top of the series) | 14.32 | inconclusive |
| 53 | `COc1ccc(C2=NN(C(=O)c3cccnc3)C(c3ccccc3)C2)cc1` (centres undefined) | at 50 µM (top of the series) | 13.64 | inconclusive |
| 54 | `Cc1noc(C)c1S(=O)(=O)N(Cc1ccccc1)C(C)C` | at 50 µM (top of the series) | 7.199 | inactive |

Some entries from above, unchanged:

| structure | tested on / at | activity change | call |
|---|---|---|---|
| `Cc1ccc2c(N)c(C(=O)c3ccccc3)sc2n1` | at 50 µM (top of the series) | 12.56 | inconclusive |
| `Cc1ccc(C(=O)NCc2ccccc2)c(F)c1F` | at 50 µM (top of the series) | 24.42 | inconclusive |
| `Cc1cc(C)nc(SCCC(=O)Nc2ccccc2Cl)n1` | at 50 µM (top of the series) | 33.23 | inconclusive |
| `CCCCNC(=O)c1cc2c(C)cc(C)cc2[nH]1` | at 50 µM (top of the series) | -4.565 | inconclusive |

Source: PubChem BioAssay AID977624 (Broad Institute, 2014).